Results are given in words; binding and its absence hold for the method and conditions named. Binding seen in cells or lysates may run through a third protein. A yes stands for co-enrichment or nearness to the bait. Other partners may have been found. Where a sequence is shown, tags or fusion partners need not be part of it.
Biological target: T1, FLAG-tagged FAM188B (human) (UniProt Q4G0A6)
T1 sequence: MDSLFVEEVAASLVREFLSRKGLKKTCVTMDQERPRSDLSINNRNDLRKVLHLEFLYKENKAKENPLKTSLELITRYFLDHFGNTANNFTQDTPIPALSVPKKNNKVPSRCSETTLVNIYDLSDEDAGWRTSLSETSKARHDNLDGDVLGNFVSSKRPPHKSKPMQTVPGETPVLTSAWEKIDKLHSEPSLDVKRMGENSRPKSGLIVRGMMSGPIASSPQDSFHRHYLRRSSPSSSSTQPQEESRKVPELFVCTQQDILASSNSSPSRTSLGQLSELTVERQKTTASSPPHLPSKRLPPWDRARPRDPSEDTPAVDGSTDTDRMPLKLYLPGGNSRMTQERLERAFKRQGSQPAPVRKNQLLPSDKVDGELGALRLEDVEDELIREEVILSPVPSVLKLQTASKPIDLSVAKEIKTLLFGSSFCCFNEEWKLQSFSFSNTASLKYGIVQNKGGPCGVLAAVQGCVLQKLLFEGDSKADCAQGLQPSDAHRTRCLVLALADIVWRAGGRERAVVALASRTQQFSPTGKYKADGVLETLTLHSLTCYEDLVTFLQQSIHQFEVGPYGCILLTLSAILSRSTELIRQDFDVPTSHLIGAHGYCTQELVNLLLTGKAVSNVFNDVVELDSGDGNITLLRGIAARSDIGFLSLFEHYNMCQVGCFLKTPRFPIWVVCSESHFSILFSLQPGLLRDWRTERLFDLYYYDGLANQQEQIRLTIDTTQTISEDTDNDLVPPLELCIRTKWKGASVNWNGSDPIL
Assay: affinity purification with mass spectrometry; FLAG-FAM188B overexpressed in HEK-293 cells, immunoprecipitated with anti-FLAG-M2 agarose affinity gel, resolved on SDS-PAGE, LC/MS-MS

Row | Substance | binding
1 | USP7 (from UniProt Q93009 1-1102) (enzyme) | binds
2 | p53 (from UniProt P04637 1-393) | binds
